Record: PubChem BioAssay AID1508597 (Cure First, 2020)
This is a random part of the about 2,100 reagents, under one of the conditions tested. 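Calls flag viability under 80% in either arm, not effects specific to rucaparib; the reference for percent is not stated.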 Some reagents were tested in more than one well and are listed for each. Not stated in the record: the 100% reference.

Aim: 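Survival screen with siRNA in ovarian cancer cells derived from patients, with or without rucaparib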 (primary screen)
Cell system: human ovarian carcinoma lines grown from tumours: OCI-P5x (papillary serous) and OCI-C5x (clear cell)
Reagent: siRNA pool against human genes, 1.25 pmol siRNA per well
Timing: 72 h or 96 h, depending on the cell culture
Treatment: rucaparib 20 µM (about IC30) or vehicle, present until read-out
Rucaparib or vehicle: Vehicle
Cell line: OCI-P5x (serous)
Measurement: 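Luminescent ATP-based viability assay read 72 or 96 h after transfection, depending on culture, given as normalised percent viability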
Scale: viability, normalised: higher = more viable cells remaining
Active means: 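Active when normalised viability falls below 80 percent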
Meaning of the calls: active = viability under 80%; inactive = viability 80% or more

USP21, technical replicate 1 scored viability, normalised (%) = 84.4; inactive. With USP21, technical replicate 2, the values are viability, normalised (%) = 65.6; active. USP21, technical replicate 3 showed viability, normalised (%) = 98.9; inactive. MTOR, technical replicate 1 scored viability, normalised (%) = 93.7; inactive. MTOR, technical replicate 2 gave viability, normalised (%) = 85.4; inactive. With MTOR, technical replicate 3, the values are viability, normalised (%) = 94.7; inactive.

With FGFR2, technical replicate 1, the entry reads viability, normalised (%) = 46.3; active. For FGFR2, technical replicate 1, the values are viability, normalised (%) = 83.1; inactive. For FGFR2, technical replicate 2, the entry reads viability, normalised (%) = 48.4; active. FGFR2, technical replicate 2 showed viability, normalised (%) = 78.6; active. For FGFR2, technical replicate 3 the deposit lists viability, normalised (%) = 119; inactive. For FGFR2, technical replicate 3, the values are viability, normalised (%) = 54.6; active.

Entries listed so far with an active call (5):
USP21, technical replicate 2: viability, normalised (%) = 65.6; outcome = active
FGFR2, technical replicate 1: viability, normalised (%) = 46.3; outcome = active
FGFR2, technical replicate 2: viability, normalised (%) = 48.4; outcome = active
FGFR2, technical replicate 2: viability, normalised (%) = 78.6; outcome = active
FGFR2, technical replicate 3: viability, normalised (%) = 54.6; outcome = active

The results go on:
PCK2, technical replicate 1 gave viability, normalised (%) = 100; inactive. With PCK2, technical replicate 2, the values are viability, normalised (%) = 97.1; inactive. For PCK2, technical replicate 3, the values are viability, normalised (%) = 78.6; active. For GTF3C4, technical replicate 1, the values are viability, normalised (%) = 49.1; active. For GTF3C4, technical replicate 2 the deposit lists viability, normalised (%) = 41.9; active. With GTF3C4, technical replicate 3 the deposit lists viability, normalised (%) = 53.1; active.

FGFR1, technical replicate 1 showed viability, normalised (%) = 103; inactive. For FGFR1, technical replicate 2, the entry reads viability, normalised (%) = 89.2; inactive. For FGFR1, technical replicate 3, the entry reads viability, normalised (%) = 98.5; inactive.
